No constants are given. Whether binding was seen depends on the method and setting. Binding seen in cells or lysates may run through a third protein. These calls come from enrichment with a bait or labelling near it, and not all partners need be listed. Tags and fused reporters may be left off the sequences shown.

Here are results for one molecule from paper PMC11809377.

The assay addresses T1, Hemagglutinin (HA)‐tagged TTK protein kinase (UniProt P35761).
T1 sequence: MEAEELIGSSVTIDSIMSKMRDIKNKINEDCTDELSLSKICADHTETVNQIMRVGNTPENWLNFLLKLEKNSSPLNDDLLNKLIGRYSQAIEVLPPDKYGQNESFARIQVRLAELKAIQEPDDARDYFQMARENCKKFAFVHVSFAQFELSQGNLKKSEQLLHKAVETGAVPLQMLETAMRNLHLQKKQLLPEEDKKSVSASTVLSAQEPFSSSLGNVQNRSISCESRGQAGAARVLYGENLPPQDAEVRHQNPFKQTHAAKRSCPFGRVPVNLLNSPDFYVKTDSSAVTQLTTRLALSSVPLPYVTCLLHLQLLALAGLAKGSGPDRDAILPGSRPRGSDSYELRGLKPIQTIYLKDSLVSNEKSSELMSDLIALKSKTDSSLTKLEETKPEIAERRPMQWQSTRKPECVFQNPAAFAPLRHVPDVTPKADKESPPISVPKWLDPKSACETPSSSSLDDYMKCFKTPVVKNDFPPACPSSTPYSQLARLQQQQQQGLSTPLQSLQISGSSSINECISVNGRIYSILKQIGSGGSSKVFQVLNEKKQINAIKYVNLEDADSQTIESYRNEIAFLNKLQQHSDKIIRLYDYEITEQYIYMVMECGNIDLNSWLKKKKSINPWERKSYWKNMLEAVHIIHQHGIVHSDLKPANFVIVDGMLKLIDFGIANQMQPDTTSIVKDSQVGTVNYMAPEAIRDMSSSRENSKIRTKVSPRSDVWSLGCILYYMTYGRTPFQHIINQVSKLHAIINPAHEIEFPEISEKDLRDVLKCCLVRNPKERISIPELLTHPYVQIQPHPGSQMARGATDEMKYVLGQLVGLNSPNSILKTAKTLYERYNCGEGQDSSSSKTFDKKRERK
The assay is described as follows: affinity purification with mass spectrometry; lysates of VSMCs transfected with HA‐tagged TTK constructs, immunoprecipitated with anti‐HA antibodies, SDS‐PAGE, trypsin digestion, LC‐MS/MS.

B1: p120‐catenin (protein, UniProt P30999 1-938)
chain: MDDSEVESTASILASVKEQEAQFEKLTRALEEERRHVSAQLERVRVSPQDANSLMANGTLTRRHQNGRFVGDADLERQKFSDLKLNGPQDHNHLLYSTIPRMQEPGQIVETYTEEDPEGAMSVVSVETTDDGTTRRTETTVKKVVKTMTTRTVQPVPMGPDGLPVDASAVSNNYIQTLGRDFRKNGNGGPGPYVGQAGTATLPRNFHYPPDGYGRHYEDGYPGGSDNYGSLSRVTRIEERYRPSMEGYRAPSRQDVYGPQPQVRVGGSSVDLHRFHPEPYGLEDDQRSMGYDDLDYGMMSDYGTARRTGTPSDPRRRLRSYEDMIGEEVPPDQYYWAPLAQHERGSLASLDSLRKGMPPPSNWRQPELPEVIAMLGFRLDAVKSNAAAYLQHLCYRNDKVKTDVRKLKGIPILVGLLDHPKKEVHLGACGALKNISFGRDQDNKIAIKNCDGVPALVRLLRKARDMDLTEVITGTLWNLSSHDSIKMEIVDHALHALTDEVIIPHSGWEREPNEDCKPRHIEWESVLTNTAGCLRNVSSERSEARRKLRECDGLVDALIFIVQAEIGQKDSDSKLVENCVCLLRNLSYQVHREIPQAERYQEALPTVANSTGPHAASCFGAKKGKDEWFSRGKKPTEDPANDTVDFPKRTSPARGYELLFQPEVVRIYISLLKESKTPAILEASAGAIQNLCAGRWTYGRYIRSALRQEKALSAIAELLTSEHERVVKAASGALRNLAVDARNKELIGKHAIPNLVKNLPGGQQNSSWNFSEDTVVSILNTINEVIAENLEAAKKLRETQGIEKLVLINKSGNRSEKEVRAAALVLQTIWGYKELRKPLEKEGWKKSDFQVNLNNASRSQSSHSYDDSTLPLIDRNQKSDKKPDREEIPMSNMGSNTKSLDNNYSTLNERGDHNRTLDRSGDLGDMEPLKGAPLMQKI
As to B1, the binding result was “binds”.
